Reference: patent publication EP4825855A1, “COMPOUND CONTAINING PYRAZOLE RING AND BICYCLIC HETEROARYL GROUP, PHARMACEUTICAL COMPOSITION THEREOF AND USE THEREOF” (dated 2026)

The chains behind the UniProt entries cited, without tags or fusion partners. Where a name states a change or a piece, a line headed by the entry shows the natural chain unless it says otherwise.
UniProt Q06187, whole entry: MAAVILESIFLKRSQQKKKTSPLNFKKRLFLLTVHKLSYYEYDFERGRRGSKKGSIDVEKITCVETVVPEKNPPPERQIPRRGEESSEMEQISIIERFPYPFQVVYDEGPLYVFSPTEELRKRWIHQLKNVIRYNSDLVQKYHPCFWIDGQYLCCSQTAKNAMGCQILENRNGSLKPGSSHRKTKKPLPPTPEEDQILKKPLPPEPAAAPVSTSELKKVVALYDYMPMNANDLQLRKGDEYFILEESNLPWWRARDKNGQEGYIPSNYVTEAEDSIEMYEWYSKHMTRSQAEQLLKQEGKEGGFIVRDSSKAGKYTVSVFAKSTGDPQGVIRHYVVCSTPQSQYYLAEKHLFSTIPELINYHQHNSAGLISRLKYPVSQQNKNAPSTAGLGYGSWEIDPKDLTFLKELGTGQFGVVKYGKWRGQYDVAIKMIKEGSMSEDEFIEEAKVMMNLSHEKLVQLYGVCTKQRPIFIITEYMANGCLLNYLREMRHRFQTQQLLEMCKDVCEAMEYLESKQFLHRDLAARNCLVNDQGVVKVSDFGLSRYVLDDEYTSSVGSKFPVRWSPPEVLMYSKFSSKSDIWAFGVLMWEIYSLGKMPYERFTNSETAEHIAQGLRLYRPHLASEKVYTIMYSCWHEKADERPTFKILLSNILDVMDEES
UniProt Q06187, whole entry C481S: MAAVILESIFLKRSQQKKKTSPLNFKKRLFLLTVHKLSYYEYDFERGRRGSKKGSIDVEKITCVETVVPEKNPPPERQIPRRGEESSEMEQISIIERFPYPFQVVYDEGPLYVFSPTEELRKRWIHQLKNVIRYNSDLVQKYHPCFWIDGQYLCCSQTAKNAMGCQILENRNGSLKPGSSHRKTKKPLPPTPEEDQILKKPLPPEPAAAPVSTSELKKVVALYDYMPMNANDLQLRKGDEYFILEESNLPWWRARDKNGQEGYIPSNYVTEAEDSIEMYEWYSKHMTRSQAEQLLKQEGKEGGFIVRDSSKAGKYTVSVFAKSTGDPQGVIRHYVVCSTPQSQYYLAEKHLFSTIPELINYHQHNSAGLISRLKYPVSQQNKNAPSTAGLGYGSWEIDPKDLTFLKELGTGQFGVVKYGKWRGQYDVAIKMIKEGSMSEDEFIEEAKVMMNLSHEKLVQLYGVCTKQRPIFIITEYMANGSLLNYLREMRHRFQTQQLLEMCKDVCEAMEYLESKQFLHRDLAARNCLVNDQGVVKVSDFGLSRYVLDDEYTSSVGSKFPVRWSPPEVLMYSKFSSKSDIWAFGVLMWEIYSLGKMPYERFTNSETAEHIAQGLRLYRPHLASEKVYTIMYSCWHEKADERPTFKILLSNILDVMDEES

How the values were obtained:
BTK(WT) kinase = BTK(WT) kinase (Homo sapiens, UniProt Q06187); test: Inhibitory activity against BTK(WT) kinase; conditions: read-out: BTK(WT) kinase inhibition IC50(nM )
Experimental: (§1) BTK kinase solution (concentration: 0.003 ng/µL) was added to assay wells at 6 µL/well, and different compounds dissolved in DMSO were added to the assay wells separately using a nanoliter pipettor, such that the final concentrations of the compounds were 1000 nM to 0.244 nM. The wells were set in duplicate, and a control well was set. After a 30-min incubation of the above system, ATP (concentration: 50 µM) was mixed with ULight-poly GT substrate (manufacturer: PerkinElmer, concentration: 0.5 µM) in a ratio of 1:1, and the mixture was added to the assay wells at 4 µL/well. The resulting mixture was left to react at room temperature for 2 h, and then 5 µL of EDTA was added to terminate the reaction, followed by the addition of 5 µL of a detection antibody (manufacturer: PerkinElmer, concentration: 8 nM). The mixture was incubated at room temperature for 1 h. The assay was performed using a PerkinElmer Envision multifunctional microplate reader (excitation: 320 nm, emission: 615 nm/665 nm), and IC50 was calculated by four-parameter fitting.

BTK(C481S) kinase = BTK(C481S) kinase (Homo sapiens, UniProt Q06187, C481S); test: Inhibitory activity against BTK(C481S) kinase; conditions: read-out: BTK(C481S) kinase inhibition IC50(nM )
Experimental: as §1, with “BTK(C481S)” for “BTK”, “0.006” for “0.003”, “fitting. The test results are shown in Table 3, where A represents: the IC50 value ≤ 10 nM.” for “fitting.”

OCI-LY10 cells = test: Inhibitory activity against OCI-LY10 cell proliferation (CCK-8); conditions: 72 h incubation
Experimental: OCI-LY10 cells in a good growth state were collected into a centrifuge tube, adjusted to a cell density of 9 × 10^4 cells/mL using an assay medium (1640 + 10% FBS), and seeded onto a 96-well plate (100 µL/well). The cells were incubated overnight in a cell incubator. Compounds were added using a nanoliter pipettor such that the final concentrations of the compounds were 1000 nM to 1.64 nM (the addition was performed in duplicate). Meanwhile, a control was set. After 72 h of incubation in the cell incubator, the assay reagent CCK-8 (manufacturer: Dojindo Laboratories; 10 µL/well) was added. After 4 h of incubation in the cell incubator, the absorbance values were measured at 450 nm on a PerkinElmer Envision microplate reader. A four-parameter analysis was performed, a dose-response curve was fitted, and IC50 was calculated. Table 1. Inhibitory activity against OCI-LY10 cell proliferation

Measured: IC50

CC(O)c1nc(Nc2cnn(-c3ccc(CNC(=O)c4cc(F)cc5cccnc45)cc3)c2C(N)=O)ccc1N1CCN(C)CC1 (stereo not drawn)
< 10 nM: all assays above

COCCN1CCN(c2ccc(Nc3cnn(-c4ccc(CNc5nc(C)cc6c(F)ccc(OC)c56)cc4)c3C(N)=O)nc2C(O)C2CC2)CC1 (stereo not drawn)
< 10 nM: all assays above

[2H]C([2H])([2H])OC(c1nc(Nc2cnn(-c3ccc(CNC(=O)c4cc(F)cc5cccnc45)cc3)c2C(N)=O)ccc1N1CCN(C([2H])([2H])[2H])CC1)C1CC1 (stereo not drawn)
< 10 nM: all assays above

Structures were worked out from names or drawings and are uncertain.
